Experimental data published in patent US11602762B2, “Apparatus and systems for applying a liquid crop-preservative formulation to a container” (1, 4 Group, Inc., priority 2013, dated 2023).
At least one compound was matched to its structure with a doubt left.

Assays:
Assay type in all cases: in vivo
[1] = system: sprouting bulb crops (garlic, leek, onion, shallot); assay: sprout inhibition on sprouting bulb crops; settings: including, but not limited to
[2] = system: sprouting root and tuber crops (beet, carrot, cassava, dasheen (taro), ginger, ginseng, horseradish, parsnip, potato, sweet potato, turnip, yam); assay: sprout inhibition on sprouting root and tuber crops; settings: including, but not limited to
[3] = system: sprouting ornamentals, such as flowering bulbs; assay: sprout inhibition on sprouting ornamentals

Cc1ccc2ccccc2c1C [DMN, dimethylnaphthalene]
effective: effectiveness on sprouting bulb crops [1] | effectiveness on sprouting root and tuber crops [2] | effectiveness on sprouting ornamentals [3]
